The shares of active, inactive and inconclusive entries below differ from those in the screen. Where the call is inconclusive, the potency comes from a doubtful curve fit. Active and inactive are the calls of the source. Calls come from the whole dose curve; as a rule, active = well fitted inhibition curve with a large enough effect; inconclusive = small, poorly fitted or top-dose-only effect; inactive = no such curve, though single readings can be large or run the other way.
Experiment: Acumen qHTS Assay for Inhibitors of the mTORC1 Signaling Pathway in WT MEF Cells: Hit Validation; note: nearly all actives have a fitted effect of over 60% in size
Summary of the method: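 Read-out is immunofluorescent phospho-rpS6 (Ser235/236) normalised to PI-stained cell number, reported as % active cells using a 7.5 nM rapamycin threshold. Cells: WT or Tsc2-/-, p53-/- MEFs, compound-exposed 24 h at 37C; PI count also tracks viability.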
Potency is the fitted concentration of half-maximal effect.

Q: For `O=C(CSc1nc2c([nH]c3ccccc32)c(=O)n1-c1ccc(F)cc1)NC1CCCCC1`, which Potency is on record?
A: inactive

Q: Which Potency does the source give for `COc1ccc(CC(=O)Nc2sc3c(c2C(=O)Nc2ccccc2)CCCCC3)cc1` here?
A: active: 13.1 µM

Q: For `COc1ccc(OC)c(Nc2c3c(nc4ccccc24)CCC3)c1`, which Potency is on record?
A: active: 0.585 µM

Q: With `CCOC(=O)Cn1c(=O)c2c(nc(N3CCOCC3)n2Cc2ccccc2)n(C)c1=O` as the molecule, how does the Potency read?
A: active: 4.14 µM

Q: Which Potency does the source give for `Cc1oc2c(cc(NS(=O)(=O)c3ccc(C(C)C)cc3)c3ccccc32)c1C(=O)OCc1ccccc1` here?
A: inactive

Q: With `Cc1ccc(C(=O)CC2(O)C(=O)N(Cc3ccccc3F)c3ccccc32)cc1` (configuration not stated) as the molecule, how does the Potency read?
A: inconclusive: 14.7 µM [inhibitor, partial curve, poor fit]

Q: Which Potency does the source give for `CC(=O)C1=C(c2ccccc2)N(C(C)=O)n2c(nnc2C2CCCCC2)S1` here?
A: inconclusive: 5.21 µM [inhibitor, single point]

Q: Which Potency does the source give for `CCCS(=O)(=O)c1ncc(Cl)c(C(=O)N2CCN(c3ccc(OC)cc3)CC2)n1` here?
A: active: 2.93 µM

Q: Which Potency does the source give for `CN(C)S(=O)(=O)c1ccc2c(c1)/C(=C/c1cc3c([nH]1)CCCC3)C(=O)N2` here?
A: inconclusive: 5.78 µM [inhibitor, partial curve, poor fit]

Q: With `CN(C)c1ccc(-c2nc3ccccn3c2Nc2ccc3c(c2)OCCO3)cc1` as the molecule, how does the Potency read?
A: inconclusive: 18.5 µM [inhibitor, single point]

Q: With `CCCN(CCC)CCCNC(=O)C1CCN(c2nc3ccc(CC)cc3s2)CC1` as the molecule, how does the Potency read?
A: inconclusive: 26.1 µM [inhibitor, single point]

Q: With `CC(=O)N1CCCc2cc(S(=O)(=O)N(Cc3ccccc3)C(C)C)ccc21` as the molecule, how does the Potency read?
A: inactive

Source: PubChem BioAssay AID651789 (National Center for Advancing Translational Sciences (NCATS), 2012)
